B1: human tRNA-Pro; a variant is named by its letters at N, in order (parent)
chain: GGCTCGTTGGTCTAGNGGTATGATTCTCGCTTAGGGTGCGAGAGGTCCCGGGTTCNNATCCCGGACGAGCCC

Series [1] covers variants of B1. Put plainly: tRNA Pol-III promoter activity, log2 (circRNA frequency / plasmid DNA frequency) (log2 ratio); higher = stronger promoter activity. Conditions: HEK293T; construct: no Pol-II promoter ((-)CMV library).
Variants of B1 are the subject of series [2]. Kind of series: tRNA 3' processing efficiency (processed reads / all reads, maximum-likelihood estimate) (fraction); higher = more efficient 3' processing. Conditions: HEK293T; construct: no Pol-II promoter ((-)CMV library).
Variants of B1 are the subject of series [3]. Put plainly: tRNA 5' processing efficiency (processed reads / all reads, maximum-likelihood estimate) (fraction); higher = more efficient 5' processing. Conditions: HEK293T; construct: CMV Pol-II promoter ((+)CMV library, decapped).

The values that follow come from the supplement of paper PMC6445147.

Single values of this data set are uncertain.

With GGCTCGTTGGTCTAGCGGTATGATTCTCGCTTAGGGTGCGAGAGGTCCCGGGTTCAAATCCCGGACGAGCCC [CAA], the “tRNA Pol-III promoter activity (log2)” value in series [1] is 0.665. For the same variant, in series [2], the “tRNA 3' processing efficiency” value was 0.25. In series [3], the “tRNA 5' processing efficiency” value is 0.27.
Take GGCTCGTTGGTCTCGGGGTGTGATTCTCGCTTAGGGTGCGAGAGGTCCCGGGTTCAAATCCCGGACGAGCCC [GAA A14C A20G]: the “tRNA Pol-III promoter activity (log2)” value in series [1] is 1.28. Besides, in series [2], the “tRNA 3' processing efficiency” value was 0.36.
The corresponding values for GGCTCGTTGGTCTCGGGGTTTGATTCTCGCTTAGGGTGCGAGAGGTCCCGGGTTCAAATCCCGGACGAGCCC [GAA A14C A20T] are 4.06 and 0.29.
Take GGCTCGTTGGTCTCGGGGTCTGATTCTCGCTTAGGGTGCGAGAGGTCCCGGGTTCAAATCCCGGACGAGCCC [GAA A14C A20C]: in series [1], the “tRNA Pol-III promoter activity (log2)” value amounted to 0.187. Also, the “tRNA 3' processing efficiency” value in series [2] is 0.25. Also, the “tRNA 5' processing efficiency” value in series [3] is 0.03.
Regarding GGCTCGTTGGTCTCGGGGTTTGATTCTCGCTTAGGGTGCGAGAGGTCCCGGGTTCAACCCCCGGACGAGCCC [GAA A14C A20T A58C T59C], the “tRNA Pol-III promoter activity (log2)” value in series [1] amounted to 4.62. Moreover, the “tRNA 3' processing efficiency” value in series [2] was 0.13.
GGCTCGTTGGTCTCGGGGTATGATTCTCGCTTAGGGTGCGAGAGGTCCCGGGTTGAAATCCCGGACGAGCCC [GAA A14C C55G]: the “tRNA Pol-III promoter activity (log2)” value in series [1] was 0.942. The “tRNA 3' processing efficiency” value in series [2] is 0.4. For the same variant, the “tRNA 5' processing efficiency” value in series [3] is 0.2.
Turning to GGCTCGTTGGTCTCGGGGTATGATTCTCGCTTAGGGTGCGAGAGGTCCCGGGTTTAAATCCCGGACGAGCCC [GAA A14C C55T], the “tRNA Pol-III promoter activity (log2)” value in series [1] came to 1.47. The “tRNA 3' processing efficiency” value in series [2] was 0.62.
Consider GGCTCGTTGGTCTCGGGGTATGATTCTCGCTTAGGGTGCGAGAGGTCCCGGGTTAAAATCCCGGACGAGCCC [GAA A14C C55A], for which the “tRNA Pol-III promoter activity (log2)” value in series [1] came to 0.906. Besides, in series [2], the “tRNA 3' processing efficiency” value is 0.4.
The corresponding values for GGCTCGTTGGTCTCGTGGTATGATTCTCGCTTAGGGTGCGAGAGGTCCCGGGTTCAAGTCCCGGACGAGCCC [TAA A14C A58G] are 3.07 and 0.67.
The corresponding values for GGCTCGTTGGTCTCGTGGTATGATTCTCGCTTAGGGTGCGAGAGGTCCCGGGTTCAATTCCCGGACGAGCCC [TAA A14C A58T] are 3.25 and 0.2.
The corresponding values for GGCTCGTTGGTCTCGAGGTATGATTCTCGCTTAGGGTGCGAGAGGTCCCGGGTTCAAATCCCGGACGAGCCC [AAA A14C] are 0.672 and 0.29.
As to GGCTCGTTGGTCTCGGGGTATGATTCTCGCTTAGGGTGCGAGAGGTCCCGGGTTCAATTCCCGGACGAGCCC [GAA A14C A58T], the “tRNA Pol-III promoter activity (log2)” value in series [1] is 2.22. Further, the “tRNA 3' processing efficiency” value in series [2] is 0.25.
Taken in the same sequence, the figures for GGCTCGTTGGTCTCGGGGTATGATTCTCGCTTAGGGTGCGAGAGGTCCCGGGTTCAAGTCCCGGACGAGCCC [GAA A14C A58G] were 2.05 and 0.59.
The corresponding values for GGCTCGTTGGTCTCGGGGTATGATTCTCGCTTAGGGTGCGAGAGGTCCCGGGTTCAACTCCCGGACGAGCCC [GAA A14C A58C] are -0.0332 and 0.38.
Taken in the same sequence, the figures for GGCTCGTTGGTCTCGGGGTATGATTCTCGCTTAGGGTGCGAGAGGTCCCGGGTTCAACACCCGGACGAGCCC [GAA A14C A58C T59A] were 3.93 and 0.13.
As to GGCTCGTTGGTCTCGGGGTATGATTCTCGCTTAGGGTGCGAGAGGTCCCGGGTTCAACGCCCGGACGAGCCC [GAA A14C A58C T59G], the “tRNA Pol-III promoter activity (log2)” value in series [1] amounted to 3.28. Moreover, the “tRNA 3' processing efficiency” value in series [2] is 0.57.
The corresponding values for GGCTCGTTGGTCTCCCGGTATGATTCTCGCTTAGGGTGCGAGAGGTCCCGGGTTCAAATCCCGGACGAGCCC [CAA A14C G15C] are 3.81 and 0.33.
As to GGCTCGTTGGTCTCGGGGTCTGATTCTCGCTTAGGGTGCGAGAGGTCCCGGGTTCAAGTCCCGGACGAGCCC [GAA A14C A20C A58G], the “tRNA Pol-III promoter activity (log2)” value in series [1] was found to be 3.94. Moreover, in series [2], the “tRNA 3' processing efficiency” value is 0.43.
Take GGCTCGTTGGTCTCCGGGTATGATTCTCGCTTAGGGTGCGAGAGGTCCCGGGTTCAAATCCCGGACGAGCCC [GAA A14C G15C]: the “tRNA Pol-III promoter activity (log2)” value in series [1] is 1.47. The “tRNA 3' processing efficiency” value in series [2] was 0.53.
Taken in the same sequence, the figures for GGCTCGTTGGTCTCGGGGTTTGATTCTCGCTTAGGGTGCGAGAGGTCCCGGGTTCAAACCCCGGACGAGCCC [GAA A14C A20T T59C] were 5.52 and 0.36.
Taken in the same sequence, the figures for GGCTCGTTGGTCTCGGGGTTTGATTCTCGCTTAGGGTGCGAGAGGTCCCGGGTTCAAAACCCGGACGAGCCC [GAA A14C A20T T59A] were 5.03 and 0.5.
Taken in the same sequence, the figures for GGCTCGTTGGTCTCGGGGTATGATTCTCGCTTAGGGTGCGAGAGGTCCCGGGTTCAATCCCCGGACGAGCCC [GAA A14C A58T T59C] were 4.93 and 0.25.
On to GGCTCGTTGGTCTAGAGGTATGATTCTCGCTTAGGGTGCGAGAGGTCCCGGGTTCAAATCCCGGACGAGCCC [AAA], for which the “tRNA Pol-III promoter activity (log2)” value in series [1] is -0.271. In addition, the “tRNA 3' processing efficiency” value in series [2] is 0.75. In addition, the “tRNA 5' processing efficiency” value in series [3] was 0.33.
Regarding GGCTCGTTGGTCTCGTGGTATGATTCTCGCTTAGGGTGCGAGAGGTCCCGGGTTCAAATCCCGGACGAGCCC [TAA A14C], the “tRNA Pol-III promoter activity (log2)” value in series [1] was 0.535. In addition, the “tRNA 3' processing efficiency” value in series [2] was 0.15.
GGCTCGTTGGTCTCGGGGTATGATTCTCGCTTAGGGTGCGAGAGGTCCCGGGTTTAACTCCCGGACGAGCCC [GAA A14C C55T A58C]: the “tRNA Pol-III promoter activity (log2)” value in series [1] was determined as 3.41. Further, the “tRNA 3' processing efficiency” value in series [2] is 0.14.
Taken in the same sequence, the figures for GGCTCGTTGGTCTCGGGGTTTGATTCTCGCTTAGGGTGCGAGAGGTCCCGGGTTCAAGTCCCGGACGAGCCC [GAA A14C A20T A58G] were 3.09 and 0.4.
As for GGCTCGTTGGTCTCGGGGTATGATTCTCGCTTAGGGTGCGAGAGGTCCCGGGTTCAAATCCCGGACGAGCCC [GAA A14C], in series [1], the “tRNA Pol-III promoter activity (log2)” value was 1.75. Also, the “tRNA 3' processing efficiency” value in series [2] was 0.31. In series [3], the “tRNA 5' processing efficiency” value was 0.21.
GGCTCGTTGGTCTCGCGGTATGATTCTCGCTTAGGGTGCGAGAGGTCCCGGGTTCAATTCCCGGACGAGCCC [CAA A14C A58T]: in series [1], the “tRNA Pol-III promoter activity (log2)” value was 4.21. For the same variant, the “tRNA 3' processing efficiency” value in series [2] was 0.5.
Take GGCTCGTTGGTCTAGTGGTATGATTCTCGCTTAGGGTGCGAGAGGTCCCGGGTTCAAATCCCGGACGAGCCC [TAA]: the “tRNA Pol-III promoter activity (log2)” value in series [1] worked out at 0.112. For the same variant, the “tRNA 3' processing efficiency” value in series [2] was 0.5. The “tRNA 5' processing efficiency” value in series [3] is 0.29.
Taken in the same sequence, the figures for GGCTCGTTGGTCTCGAGGTATGATTCTCGCTTAGGGTGCGAGAGGTCCCGGGTTCAATTCCCGGACGAGCCC [AAA A14C A58T] were 2.04, 0.25 and 0.33.
With GGCTCGTTGGTCTCGCGGTATGATTCTCGCTTAGGGTGCGAGAGGTCCCGGGTTCAAATCCCGGACGAGCCC [CAA A14C], in series [1], the “tRNA Pol-III promoter activity (log2)” value stood at 0.652. Further, the “tRNA 3' processing efficiency” value in series [2] was 0.22.
Taken in the same sequence, the figures for GGCTCGTTGGTCTCGTGGTTTGATTCTCGCTTAGGGTGCGAGAGGTCCCGGGTTCAAATCCCGGACGAGCCC [TAA A14C A20T] were 3.36 and 0.5.
On to GGCTCGTTGGTCTCGGGGTTTGATTCTCGCTTAGGGTGCGAGAGGTCCCGGGGTCAAATCCCGGACGAGCCC [GAA A14C A20T T53G], for which, in series [1], the “tRNA Pol-III promoter activity (log2)” value was 4.93. Also, in series [2], the “tRNA 3' processing efficiency” value was 0.5.
The corresponding values for GGCTCGTTGGTCTCGCGGTATGATTCTCGCTTAGGGTGCGAGAGGTCCCGGGTTTAAATCCCGGACGAGCCC [CAA A14C C55T] are 2.74 and 0.14.
